Reference: the supplement of paper PMC12595434, “Development of retinoid nuclear receptor pathway antagonists through targeting aldehyde dehydrogenase 1A3” (iScience, 2025)
The list shows a part of the results. This is a noisy data set.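 Many melting curves are irregular; where none melted, Tm was taken as 64 °C.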

The chains behind the UniProt entries cited, without tags or fusion partners. Where a name states a change or a piece, a line headed by the entry shows the natural chain unless it says otherwise.
UniProt Q14691: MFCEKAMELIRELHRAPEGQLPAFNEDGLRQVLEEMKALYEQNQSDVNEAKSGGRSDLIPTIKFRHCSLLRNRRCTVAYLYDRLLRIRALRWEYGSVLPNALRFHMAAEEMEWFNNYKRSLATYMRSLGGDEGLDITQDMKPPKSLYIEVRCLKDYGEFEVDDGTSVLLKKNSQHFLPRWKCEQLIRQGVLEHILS
UniProt Q15024, whole entry: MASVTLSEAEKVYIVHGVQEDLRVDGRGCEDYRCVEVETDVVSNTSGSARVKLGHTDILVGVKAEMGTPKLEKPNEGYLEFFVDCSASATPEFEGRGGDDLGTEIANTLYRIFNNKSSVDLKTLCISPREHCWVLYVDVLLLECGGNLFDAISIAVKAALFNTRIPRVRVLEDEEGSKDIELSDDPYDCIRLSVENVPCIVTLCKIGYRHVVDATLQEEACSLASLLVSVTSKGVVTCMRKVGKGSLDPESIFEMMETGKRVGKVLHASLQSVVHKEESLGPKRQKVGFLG
UniProt Q14CW9: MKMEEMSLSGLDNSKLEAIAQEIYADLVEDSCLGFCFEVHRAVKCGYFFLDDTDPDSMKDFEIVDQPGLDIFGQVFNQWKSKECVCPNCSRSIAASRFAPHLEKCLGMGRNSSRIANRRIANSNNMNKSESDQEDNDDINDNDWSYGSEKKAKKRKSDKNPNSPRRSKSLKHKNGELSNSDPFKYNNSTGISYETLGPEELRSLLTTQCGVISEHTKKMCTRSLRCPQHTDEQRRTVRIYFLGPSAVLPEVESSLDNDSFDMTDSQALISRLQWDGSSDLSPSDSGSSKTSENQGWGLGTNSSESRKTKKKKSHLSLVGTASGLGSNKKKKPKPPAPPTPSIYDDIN
UniProt Q14004, whole entry, looked up: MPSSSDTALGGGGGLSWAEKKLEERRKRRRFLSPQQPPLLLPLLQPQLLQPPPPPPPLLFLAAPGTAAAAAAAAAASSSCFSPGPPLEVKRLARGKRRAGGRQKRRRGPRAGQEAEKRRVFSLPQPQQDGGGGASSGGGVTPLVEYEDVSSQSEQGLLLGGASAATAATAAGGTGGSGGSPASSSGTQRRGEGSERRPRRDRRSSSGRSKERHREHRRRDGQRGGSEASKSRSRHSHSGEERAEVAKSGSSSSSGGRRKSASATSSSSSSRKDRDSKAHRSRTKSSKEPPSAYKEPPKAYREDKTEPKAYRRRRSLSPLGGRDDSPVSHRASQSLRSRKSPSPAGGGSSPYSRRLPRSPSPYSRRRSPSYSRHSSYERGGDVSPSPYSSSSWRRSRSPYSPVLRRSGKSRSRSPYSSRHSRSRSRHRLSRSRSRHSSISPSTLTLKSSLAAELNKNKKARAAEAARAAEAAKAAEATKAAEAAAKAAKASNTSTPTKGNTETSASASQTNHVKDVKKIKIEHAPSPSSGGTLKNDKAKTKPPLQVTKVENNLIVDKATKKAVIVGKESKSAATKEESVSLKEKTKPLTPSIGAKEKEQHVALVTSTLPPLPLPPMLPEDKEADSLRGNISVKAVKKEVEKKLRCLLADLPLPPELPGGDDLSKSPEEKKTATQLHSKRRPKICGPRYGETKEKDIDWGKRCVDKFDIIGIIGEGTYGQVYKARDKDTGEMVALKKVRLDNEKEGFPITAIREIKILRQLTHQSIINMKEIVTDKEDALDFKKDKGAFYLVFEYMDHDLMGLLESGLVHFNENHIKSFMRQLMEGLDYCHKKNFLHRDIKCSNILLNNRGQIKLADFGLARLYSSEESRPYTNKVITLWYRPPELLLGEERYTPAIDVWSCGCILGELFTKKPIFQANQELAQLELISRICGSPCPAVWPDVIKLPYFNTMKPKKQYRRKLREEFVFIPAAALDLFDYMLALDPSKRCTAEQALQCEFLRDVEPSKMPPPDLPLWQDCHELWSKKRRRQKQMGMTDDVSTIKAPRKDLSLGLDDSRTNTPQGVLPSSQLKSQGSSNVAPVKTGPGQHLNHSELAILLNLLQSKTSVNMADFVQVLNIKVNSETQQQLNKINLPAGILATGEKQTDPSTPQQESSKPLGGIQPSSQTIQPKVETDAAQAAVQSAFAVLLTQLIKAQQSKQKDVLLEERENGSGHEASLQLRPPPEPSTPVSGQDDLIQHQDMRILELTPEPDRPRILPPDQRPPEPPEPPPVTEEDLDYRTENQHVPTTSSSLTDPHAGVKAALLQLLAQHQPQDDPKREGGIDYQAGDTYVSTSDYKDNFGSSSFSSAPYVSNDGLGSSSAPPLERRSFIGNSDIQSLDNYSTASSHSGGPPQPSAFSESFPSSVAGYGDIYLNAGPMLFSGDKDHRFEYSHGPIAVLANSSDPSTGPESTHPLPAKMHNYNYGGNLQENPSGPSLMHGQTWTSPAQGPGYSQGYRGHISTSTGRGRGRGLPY
UniProt Q14257: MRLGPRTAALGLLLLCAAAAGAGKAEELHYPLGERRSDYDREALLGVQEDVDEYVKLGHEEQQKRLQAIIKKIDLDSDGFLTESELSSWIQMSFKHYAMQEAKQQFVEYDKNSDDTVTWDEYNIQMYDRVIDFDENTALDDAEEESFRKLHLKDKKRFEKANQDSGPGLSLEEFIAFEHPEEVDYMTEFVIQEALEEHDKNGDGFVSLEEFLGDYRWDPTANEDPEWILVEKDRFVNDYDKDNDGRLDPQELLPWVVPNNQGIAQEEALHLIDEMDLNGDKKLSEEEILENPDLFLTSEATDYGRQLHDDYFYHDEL
UniProt Q13608: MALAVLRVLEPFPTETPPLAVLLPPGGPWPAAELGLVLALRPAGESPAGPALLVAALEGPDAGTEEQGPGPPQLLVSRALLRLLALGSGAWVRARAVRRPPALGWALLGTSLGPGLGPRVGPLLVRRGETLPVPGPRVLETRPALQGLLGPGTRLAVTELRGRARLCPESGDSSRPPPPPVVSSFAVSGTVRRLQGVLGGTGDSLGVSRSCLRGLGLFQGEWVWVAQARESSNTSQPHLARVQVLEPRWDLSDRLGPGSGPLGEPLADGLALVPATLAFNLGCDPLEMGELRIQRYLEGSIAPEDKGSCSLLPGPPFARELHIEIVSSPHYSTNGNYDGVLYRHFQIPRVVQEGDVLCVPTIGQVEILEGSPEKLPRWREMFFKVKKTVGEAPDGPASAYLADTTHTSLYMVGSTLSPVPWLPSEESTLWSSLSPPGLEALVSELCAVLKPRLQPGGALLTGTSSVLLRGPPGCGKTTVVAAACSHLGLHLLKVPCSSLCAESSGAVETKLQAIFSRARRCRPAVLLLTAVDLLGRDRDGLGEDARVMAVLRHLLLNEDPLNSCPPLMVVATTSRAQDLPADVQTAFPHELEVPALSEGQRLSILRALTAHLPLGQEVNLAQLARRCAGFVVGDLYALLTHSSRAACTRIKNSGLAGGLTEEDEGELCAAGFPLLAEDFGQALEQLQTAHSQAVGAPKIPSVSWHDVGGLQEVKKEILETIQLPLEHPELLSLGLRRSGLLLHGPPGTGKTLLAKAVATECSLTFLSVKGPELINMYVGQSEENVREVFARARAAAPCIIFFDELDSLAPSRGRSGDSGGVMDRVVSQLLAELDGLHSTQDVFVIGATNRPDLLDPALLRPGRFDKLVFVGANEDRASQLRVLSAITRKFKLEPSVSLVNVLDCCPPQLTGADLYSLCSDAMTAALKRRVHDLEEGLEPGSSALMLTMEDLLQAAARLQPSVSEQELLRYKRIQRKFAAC
UniProt Q14746: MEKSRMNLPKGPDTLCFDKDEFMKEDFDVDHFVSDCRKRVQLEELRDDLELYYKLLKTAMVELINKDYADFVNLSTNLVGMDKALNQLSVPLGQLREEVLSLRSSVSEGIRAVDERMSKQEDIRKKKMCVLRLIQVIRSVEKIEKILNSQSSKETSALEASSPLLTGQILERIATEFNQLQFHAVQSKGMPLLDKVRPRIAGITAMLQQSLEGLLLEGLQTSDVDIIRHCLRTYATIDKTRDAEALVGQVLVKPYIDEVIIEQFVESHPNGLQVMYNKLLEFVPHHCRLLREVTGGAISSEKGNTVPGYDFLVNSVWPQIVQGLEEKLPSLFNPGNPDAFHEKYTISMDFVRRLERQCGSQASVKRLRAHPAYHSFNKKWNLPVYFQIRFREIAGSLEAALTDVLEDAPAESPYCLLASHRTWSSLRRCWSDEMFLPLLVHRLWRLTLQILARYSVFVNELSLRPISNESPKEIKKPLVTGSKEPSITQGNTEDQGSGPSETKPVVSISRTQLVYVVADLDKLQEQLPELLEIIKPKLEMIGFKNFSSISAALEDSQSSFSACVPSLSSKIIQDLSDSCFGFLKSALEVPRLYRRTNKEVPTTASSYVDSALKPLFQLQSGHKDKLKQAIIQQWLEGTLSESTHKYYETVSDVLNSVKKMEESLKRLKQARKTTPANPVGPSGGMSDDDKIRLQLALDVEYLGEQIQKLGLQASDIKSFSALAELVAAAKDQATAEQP
UniProt Q14696: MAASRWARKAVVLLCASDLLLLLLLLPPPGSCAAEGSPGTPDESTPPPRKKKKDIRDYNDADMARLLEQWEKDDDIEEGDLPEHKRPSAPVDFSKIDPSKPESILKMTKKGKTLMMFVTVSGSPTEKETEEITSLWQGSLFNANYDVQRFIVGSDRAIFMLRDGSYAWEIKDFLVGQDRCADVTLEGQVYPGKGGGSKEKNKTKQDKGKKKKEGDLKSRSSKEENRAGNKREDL
UniProt Q15003, whole entry: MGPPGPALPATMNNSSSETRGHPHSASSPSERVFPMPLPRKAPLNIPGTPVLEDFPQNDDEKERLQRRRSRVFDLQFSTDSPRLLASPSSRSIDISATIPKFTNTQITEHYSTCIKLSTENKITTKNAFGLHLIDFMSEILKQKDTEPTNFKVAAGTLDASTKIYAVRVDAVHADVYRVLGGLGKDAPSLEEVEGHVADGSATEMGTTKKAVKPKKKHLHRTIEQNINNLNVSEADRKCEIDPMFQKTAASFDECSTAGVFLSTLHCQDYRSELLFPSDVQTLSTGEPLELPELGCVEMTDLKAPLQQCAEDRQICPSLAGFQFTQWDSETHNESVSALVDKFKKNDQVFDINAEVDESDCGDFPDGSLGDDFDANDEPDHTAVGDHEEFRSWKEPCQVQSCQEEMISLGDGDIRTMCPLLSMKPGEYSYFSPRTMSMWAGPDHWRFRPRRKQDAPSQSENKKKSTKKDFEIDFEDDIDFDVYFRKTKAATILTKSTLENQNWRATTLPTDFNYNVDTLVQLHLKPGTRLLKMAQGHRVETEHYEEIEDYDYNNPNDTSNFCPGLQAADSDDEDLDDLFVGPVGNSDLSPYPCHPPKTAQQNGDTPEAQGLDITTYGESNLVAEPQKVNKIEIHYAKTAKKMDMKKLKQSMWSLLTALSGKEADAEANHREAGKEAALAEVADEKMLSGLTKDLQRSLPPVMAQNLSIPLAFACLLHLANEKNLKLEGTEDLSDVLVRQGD
UniProt Q15004: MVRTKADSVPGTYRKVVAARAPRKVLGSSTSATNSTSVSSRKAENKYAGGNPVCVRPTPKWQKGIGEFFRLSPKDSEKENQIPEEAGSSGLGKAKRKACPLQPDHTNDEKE
UniProt Q13526, whole entry: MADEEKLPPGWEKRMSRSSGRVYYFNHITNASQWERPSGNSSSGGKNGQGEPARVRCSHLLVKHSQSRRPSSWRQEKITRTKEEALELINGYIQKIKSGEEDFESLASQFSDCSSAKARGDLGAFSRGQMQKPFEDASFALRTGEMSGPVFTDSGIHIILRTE
UniProt Q13761, whole entry: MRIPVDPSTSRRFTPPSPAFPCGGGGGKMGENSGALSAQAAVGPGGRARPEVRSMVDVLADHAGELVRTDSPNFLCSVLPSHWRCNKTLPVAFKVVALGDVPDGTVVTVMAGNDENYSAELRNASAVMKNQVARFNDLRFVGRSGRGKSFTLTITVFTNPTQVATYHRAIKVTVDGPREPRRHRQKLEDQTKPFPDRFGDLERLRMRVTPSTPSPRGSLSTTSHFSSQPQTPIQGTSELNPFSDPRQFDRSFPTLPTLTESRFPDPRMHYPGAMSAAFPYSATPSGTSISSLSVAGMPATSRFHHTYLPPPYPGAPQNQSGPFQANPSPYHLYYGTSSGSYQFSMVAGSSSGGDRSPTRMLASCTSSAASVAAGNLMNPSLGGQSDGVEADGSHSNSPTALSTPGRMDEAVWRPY
UniProt Q13637: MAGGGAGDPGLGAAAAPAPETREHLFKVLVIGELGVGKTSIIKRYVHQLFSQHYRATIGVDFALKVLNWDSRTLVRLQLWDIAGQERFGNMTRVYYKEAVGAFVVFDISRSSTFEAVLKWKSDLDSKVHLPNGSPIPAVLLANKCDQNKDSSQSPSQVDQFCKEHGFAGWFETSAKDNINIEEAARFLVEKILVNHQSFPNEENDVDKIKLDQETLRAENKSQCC

Compound: CCc1cnccc1C(=O)Nc1cc2c(cc1F)NC(=O)CC2
Assay: melting temperature shift (DMSO Tm minus MBE1-treated Tm) in cellular thermal proteome profiling; higher = less thermal stabilization by MBE1 (negative = stabilized by MBE1)
Settings: A375; MBE1 concentration: 100 nM

| Target | melting temperature shift |
| --- | --- |
| PSMD6 (UniProt Q15008) | -0.791 °C |
| UniProt Q13523 | 0.727 °C |
| CLINT1 (UniProt Q14677) | 0.00611 °C |
| KCNAB2 (UniProt Q13303) | -8.7 °C |
| GINS1 (UniProt Q14691) | 0.666 °C |
| DDX39B (UniProt Q13838) | -0.744 °C |
| EIF3A (UniProt Q14152) | -0.268 °C |
| EXOSC7 (UniProt Q15024) | -1.36 °C |
| UniProt Q14CW9 | -2.84 °C |
| PSME4 (UniProt Q14997) | -0.484 °C |
| GOLGB1 (UniProt Q14789) | -1.1 °C |
| MAD2L1 (UniProt Q13257) | -0.47 °C |
| PDCL (UniProt Q13371) | -0.0855 °C |
| AIMP2 (UniProt Q13155) | -1.13 °C |
| KANK1 (UniProt Q14678) | -0.249 °C |
| UniProt Q14004 | -0.417 °C |
| RCN2 (UniProt Q14257) | -1.63 °C |
| DYNC1H1 (UniProt Q14204) | 0.104 °C |
| PEX6 (UniProt Q13608) | -0.195 °C |

| Target | melting temperature shift |
| --- | --- |
| GAMT (UniProt Q14353) | 0.311 °C |
| UniProt Q14194 | -1.68 °C |
| USP10 (UniProt Q14694) | -0.897 °C |
| UniProt Q14681 | -0.971 °C |
| RRS1 (UniProt Q15050) | 1.71 °C |
| COG2 (UniProt Q14746) | 0.546 °C |
| MESDC2 (UniProt Q14696) | -0.756 °C |
| R3HDM1 (UniProt Q15032) | -0.342 °C |
| NCAPH (UniProt Q15003) | -0.306 °C |
| STIM1 (UniProt Q13586) | 0.659 °C |
| FRG1 (UniProt Q14331) | 1.23 °C |
| FLOT2 (UniProt Q14254) | -2.37 °C |
| KIAA0101 (UniProt Q15004) | 0.946 °C |
| PIN1 (UniProt Q13526) | 0.855 °C |
| UniProt Q13761 | -0.852 °C |
| GALE (UniProt Q14376) | -0.512 °C |
| DHX34 (UniProt Q14147) | -0.755 °C |
| RAB32 (UniProt Q13637) | 0.262 °C |

Same assay, conditions: A375; MBE1 concentration: 1 uM

| Target | melting temperature shift |
| --- | --- |
| PSMD6 (UniProt Q15008) | 0.476 °C |
| UniProt Q13523 | 0.482 °C |
| CLINT1 (UniProt Q14677) | 0.94 °C |
| KCNAB2 (UniProt Q13303) | -3.08 °C |
| GINS1 (UniProt Q14691) | 0.629 °C |
| DDX39B (UniProt Q13838) | 0.364 °C |
| EIF3A (UniProt Q14152) | -0.311 °C |
| EXOSC7 (UniProt Q15024) | 0.527 °C |
| UniProt Q14CW9 | -0.474 °C |
| PSME4 (UniProt Q14997) | 0.989 °C |
| GOLGB1 (UniProt Q14789) | -0.678 °C |
| MAD2L1 (UniProt Q13257) | -0.763 °C |
| PDCL (UniProt Q13371) | -0.855 °C |
| AIMP2 (UniProt Q13155) | 0.254 °C |
| KANK1 (UniProt Q14678) | -0.103 °C |
| UniProt Q14004 | 0.995 °C |
| RCN2 (UniProt Q14257) | 0.919 °C |
| DYNC1H1 (UniProt Q14204) | 0.605 °C |
| PEX6 (UniProt Q13608) | 0.421 °C |

| Target | melting temperature shift |
| --- | --- |
| GAMT (UniProt Q14353) | 0.702 °C |
| UniProt Q14194 | -3.22 °C |
| USP10 (UniProt Q14694) | -0.352 °C |
| UniProt Q14681 | 0.635 °C |
| RRS1 (UniProt Q15050) | 0.795 °C |
| COG2 (UniProt Q14746) | 0.122 °C |
| MESDC2 (UniProt Q14696) | 0.733 °C |
| R3HDM1 (UniProt Q15032) | -0.983 °C |
| NCAPH (UniProt Q15003) | -0.456 °C |
| STIM1 (UniProt Q13586) | 0.849 °C |
| FRG1 (UniProt Q14331) | 1.22 °C |
| FLOT2 (UniProt Q14254) | -0.651 °C |
| KIAA0101 (UniProt Q15004) | 2.73 °C |
| PIN1 (UniProt Q13526) | -0.385 °C |
| UniProt Q13761 | -2 °C |
| GALE (UniProt Q14376) | 0.482 °C |
| DHX34 (UniProt Q14147) | -0.532 °C |
| RAB32 (UniProt Q13637) | 0.396 °C |
